# Test results: patent US20040138204A1, “Compositions and methods for pain reduction” (priority 2002, published 2004)
# System: dorsal root ganglion
# Test: Epidural infusion of radiolabeled glutamate, radiolabeling of dorsal root ganglion
# Assay type: in vivo, rat
compound,measurement,setting,value
N[C@@H](CCC(=O)O)C(=O)O [glutamate],side of significant radiolabeling of dorsal root ganglion,"infusions below 0.22 mmol/L, epidural, 72 hours",significant radiolabeling occurred only on the side ipsilateral to the infusion catheter tip
same,lowest infused concentration giving significant radiolabeling of the dorsal root ganglion,"male Sprague-Dawley rats, epidural infusion over 72 hours",0.003 mmol/L
